Measurements: the supplement of paper PMC10849652
This is one part of the list.

Chains of the proteins cited; added tags and fusions are not shown. Lines headed by an entry give the natural chain unless they say otherwise; changes in a name come on top.
UniProt P69905, whole entry, looked up: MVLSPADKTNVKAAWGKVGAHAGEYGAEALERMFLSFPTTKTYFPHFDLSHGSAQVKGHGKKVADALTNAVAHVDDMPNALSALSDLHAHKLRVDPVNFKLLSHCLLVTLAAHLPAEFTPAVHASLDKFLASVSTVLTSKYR
UniProt Q86XA9: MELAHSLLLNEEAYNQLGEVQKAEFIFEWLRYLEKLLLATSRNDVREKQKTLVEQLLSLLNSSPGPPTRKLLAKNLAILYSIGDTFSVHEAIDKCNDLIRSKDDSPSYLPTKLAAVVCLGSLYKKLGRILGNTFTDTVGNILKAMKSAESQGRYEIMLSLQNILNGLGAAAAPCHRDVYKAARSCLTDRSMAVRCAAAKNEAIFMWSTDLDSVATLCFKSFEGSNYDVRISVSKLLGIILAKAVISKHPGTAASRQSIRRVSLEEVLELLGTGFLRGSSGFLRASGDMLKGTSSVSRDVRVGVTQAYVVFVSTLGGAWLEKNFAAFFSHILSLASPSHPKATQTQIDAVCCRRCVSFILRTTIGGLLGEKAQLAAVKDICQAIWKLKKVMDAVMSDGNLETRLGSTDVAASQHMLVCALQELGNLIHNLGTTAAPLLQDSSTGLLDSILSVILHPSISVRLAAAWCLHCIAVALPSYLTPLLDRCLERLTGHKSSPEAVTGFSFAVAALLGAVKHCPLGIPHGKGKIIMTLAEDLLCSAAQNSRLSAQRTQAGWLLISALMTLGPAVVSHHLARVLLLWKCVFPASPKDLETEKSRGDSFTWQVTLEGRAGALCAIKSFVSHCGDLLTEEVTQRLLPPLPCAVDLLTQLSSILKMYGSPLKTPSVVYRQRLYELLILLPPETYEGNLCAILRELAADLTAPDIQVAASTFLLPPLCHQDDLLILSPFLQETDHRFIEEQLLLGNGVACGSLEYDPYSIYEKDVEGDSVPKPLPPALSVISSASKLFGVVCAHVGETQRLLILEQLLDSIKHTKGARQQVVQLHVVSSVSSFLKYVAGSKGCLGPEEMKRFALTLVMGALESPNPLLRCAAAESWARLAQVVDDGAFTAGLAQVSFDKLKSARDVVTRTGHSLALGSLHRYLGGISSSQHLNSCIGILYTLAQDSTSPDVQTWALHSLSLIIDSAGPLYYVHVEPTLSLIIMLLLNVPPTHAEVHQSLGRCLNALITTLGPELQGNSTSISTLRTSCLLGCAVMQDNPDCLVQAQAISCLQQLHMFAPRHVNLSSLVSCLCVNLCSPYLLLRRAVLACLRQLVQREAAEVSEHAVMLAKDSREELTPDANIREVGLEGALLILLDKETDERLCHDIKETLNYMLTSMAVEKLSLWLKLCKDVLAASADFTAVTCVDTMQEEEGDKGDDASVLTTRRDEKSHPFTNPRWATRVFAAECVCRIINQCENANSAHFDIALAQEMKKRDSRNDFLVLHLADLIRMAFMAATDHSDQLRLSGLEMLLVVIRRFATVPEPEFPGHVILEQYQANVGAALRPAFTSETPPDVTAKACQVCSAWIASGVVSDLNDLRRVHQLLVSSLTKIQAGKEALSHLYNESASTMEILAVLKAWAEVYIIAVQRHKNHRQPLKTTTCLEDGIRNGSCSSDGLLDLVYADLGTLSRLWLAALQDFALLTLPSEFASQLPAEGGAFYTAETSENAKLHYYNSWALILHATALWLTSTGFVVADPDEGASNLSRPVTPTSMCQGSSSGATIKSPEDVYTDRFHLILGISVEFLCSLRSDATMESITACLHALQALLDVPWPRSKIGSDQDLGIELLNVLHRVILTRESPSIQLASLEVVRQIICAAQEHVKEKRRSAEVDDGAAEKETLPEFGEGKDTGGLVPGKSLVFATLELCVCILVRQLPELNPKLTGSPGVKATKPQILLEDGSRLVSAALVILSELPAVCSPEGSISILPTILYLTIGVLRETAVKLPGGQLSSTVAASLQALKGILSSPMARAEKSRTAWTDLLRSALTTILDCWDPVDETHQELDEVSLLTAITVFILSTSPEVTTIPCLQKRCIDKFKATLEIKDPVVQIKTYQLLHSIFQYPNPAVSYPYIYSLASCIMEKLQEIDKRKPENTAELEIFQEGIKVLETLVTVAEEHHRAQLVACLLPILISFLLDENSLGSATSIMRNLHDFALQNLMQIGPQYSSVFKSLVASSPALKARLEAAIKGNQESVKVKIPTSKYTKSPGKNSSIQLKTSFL
UniProt P29084: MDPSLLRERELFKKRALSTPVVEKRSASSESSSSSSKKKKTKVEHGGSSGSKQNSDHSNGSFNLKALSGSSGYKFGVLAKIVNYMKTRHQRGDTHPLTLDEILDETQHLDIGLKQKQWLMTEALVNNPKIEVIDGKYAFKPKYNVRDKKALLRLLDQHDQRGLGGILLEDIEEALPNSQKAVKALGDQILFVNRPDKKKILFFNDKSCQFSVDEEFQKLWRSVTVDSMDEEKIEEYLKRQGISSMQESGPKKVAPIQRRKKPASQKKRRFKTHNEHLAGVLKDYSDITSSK
UniProt Q00403, whole entry, looked up: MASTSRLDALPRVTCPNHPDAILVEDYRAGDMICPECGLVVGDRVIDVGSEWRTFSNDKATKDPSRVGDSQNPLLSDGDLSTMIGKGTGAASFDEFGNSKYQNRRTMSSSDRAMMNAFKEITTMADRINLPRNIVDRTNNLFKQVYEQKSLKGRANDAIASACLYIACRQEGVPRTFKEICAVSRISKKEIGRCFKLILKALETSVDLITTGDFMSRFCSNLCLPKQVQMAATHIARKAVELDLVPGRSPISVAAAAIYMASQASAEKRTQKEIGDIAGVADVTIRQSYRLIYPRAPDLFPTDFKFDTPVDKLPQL
UniProt P13807: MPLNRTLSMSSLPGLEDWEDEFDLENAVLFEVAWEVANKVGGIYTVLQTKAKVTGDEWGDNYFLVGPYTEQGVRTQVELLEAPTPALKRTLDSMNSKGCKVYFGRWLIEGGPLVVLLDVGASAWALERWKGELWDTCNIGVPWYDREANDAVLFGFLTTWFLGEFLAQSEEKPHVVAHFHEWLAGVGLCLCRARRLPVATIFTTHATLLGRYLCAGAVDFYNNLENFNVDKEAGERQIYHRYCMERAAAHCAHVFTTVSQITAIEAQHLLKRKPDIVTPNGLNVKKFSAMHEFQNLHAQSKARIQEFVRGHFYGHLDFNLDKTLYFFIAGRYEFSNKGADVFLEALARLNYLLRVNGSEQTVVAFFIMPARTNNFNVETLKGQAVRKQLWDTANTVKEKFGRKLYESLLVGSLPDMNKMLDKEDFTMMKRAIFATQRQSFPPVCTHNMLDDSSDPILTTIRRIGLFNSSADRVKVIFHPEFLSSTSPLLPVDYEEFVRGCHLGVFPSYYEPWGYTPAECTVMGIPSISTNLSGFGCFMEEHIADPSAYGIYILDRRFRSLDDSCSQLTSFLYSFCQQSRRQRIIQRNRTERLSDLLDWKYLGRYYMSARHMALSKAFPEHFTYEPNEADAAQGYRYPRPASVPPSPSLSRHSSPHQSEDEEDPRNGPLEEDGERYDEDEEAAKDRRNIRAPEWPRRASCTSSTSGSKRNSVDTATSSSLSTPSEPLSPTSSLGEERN
UniProt Q92769, whole entry, looked up: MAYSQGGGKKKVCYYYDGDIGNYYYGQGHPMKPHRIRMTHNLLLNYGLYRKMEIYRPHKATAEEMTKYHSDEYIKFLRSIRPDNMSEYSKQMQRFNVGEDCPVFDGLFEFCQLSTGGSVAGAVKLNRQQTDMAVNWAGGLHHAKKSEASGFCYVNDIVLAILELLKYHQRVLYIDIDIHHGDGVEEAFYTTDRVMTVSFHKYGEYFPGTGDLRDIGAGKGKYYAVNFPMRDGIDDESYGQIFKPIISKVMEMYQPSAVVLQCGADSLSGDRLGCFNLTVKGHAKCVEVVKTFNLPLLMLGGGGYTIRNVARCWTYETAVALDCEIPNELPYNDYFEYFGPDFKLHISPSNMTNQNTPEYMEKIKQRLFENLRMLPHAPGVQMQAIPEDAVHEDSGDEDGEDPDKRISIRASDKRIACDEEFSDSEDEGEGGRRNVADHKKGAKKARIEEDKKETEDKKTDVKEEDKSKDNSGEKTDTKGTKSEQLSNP
UniProt P78347: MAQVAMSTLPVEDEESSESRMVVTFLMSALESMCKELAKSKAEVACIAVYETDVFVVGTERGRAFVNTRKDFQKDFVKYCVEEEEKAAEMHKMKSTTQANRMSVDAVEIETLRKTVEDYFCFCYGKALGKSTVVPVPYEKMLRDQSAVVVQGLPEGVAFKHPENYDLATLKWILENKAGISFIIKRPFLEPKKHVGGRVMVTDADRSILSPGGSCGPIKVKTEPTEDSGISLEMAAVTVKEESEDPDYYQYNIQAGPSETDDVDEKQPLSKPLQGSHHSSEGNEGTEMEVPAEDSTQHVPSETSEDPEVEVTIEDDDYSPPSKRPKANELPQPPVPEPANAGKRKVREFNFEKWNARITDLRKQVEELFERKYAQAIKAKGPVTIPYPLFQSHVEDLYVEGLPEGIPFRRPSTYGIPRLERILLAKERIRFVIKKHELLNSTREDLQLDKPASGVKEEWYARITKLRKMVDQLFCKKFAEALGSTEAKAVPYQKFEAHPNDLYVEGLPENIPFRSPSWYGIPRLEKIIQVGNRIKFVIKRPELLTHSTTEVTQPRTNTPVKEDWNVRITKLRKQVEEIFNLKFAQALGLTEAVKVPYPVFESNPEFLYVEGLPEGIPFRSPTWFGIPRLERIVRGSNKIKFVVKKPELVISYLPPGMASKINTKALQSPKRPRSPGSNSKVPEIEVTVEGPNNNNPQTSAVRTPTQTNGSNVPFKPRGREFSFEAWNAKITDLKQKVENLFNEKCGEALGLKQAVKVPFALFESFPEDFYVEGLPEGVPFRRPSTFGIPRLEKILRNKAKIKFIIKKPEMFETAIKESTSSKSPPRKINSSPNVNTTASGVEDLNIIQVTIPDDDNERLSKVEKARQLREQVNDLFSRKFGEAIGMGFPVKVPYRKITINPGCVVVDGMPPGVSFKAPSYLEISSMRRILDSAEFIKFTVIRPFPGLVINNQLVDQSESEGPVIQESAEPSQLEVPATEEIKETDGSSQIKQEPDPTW
UniProt P21266: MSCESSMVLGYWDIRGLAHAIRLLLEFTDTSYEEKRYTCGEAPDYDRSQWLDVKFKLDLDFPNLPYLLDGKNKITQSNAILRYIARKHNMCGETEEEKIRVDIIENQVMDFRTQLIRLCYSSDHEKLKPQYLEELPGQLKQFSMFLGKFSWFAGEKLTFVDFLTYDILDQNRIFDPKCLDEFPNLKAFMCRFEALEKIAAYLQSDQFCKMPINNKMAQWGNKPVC
UniProt Q9UQL6: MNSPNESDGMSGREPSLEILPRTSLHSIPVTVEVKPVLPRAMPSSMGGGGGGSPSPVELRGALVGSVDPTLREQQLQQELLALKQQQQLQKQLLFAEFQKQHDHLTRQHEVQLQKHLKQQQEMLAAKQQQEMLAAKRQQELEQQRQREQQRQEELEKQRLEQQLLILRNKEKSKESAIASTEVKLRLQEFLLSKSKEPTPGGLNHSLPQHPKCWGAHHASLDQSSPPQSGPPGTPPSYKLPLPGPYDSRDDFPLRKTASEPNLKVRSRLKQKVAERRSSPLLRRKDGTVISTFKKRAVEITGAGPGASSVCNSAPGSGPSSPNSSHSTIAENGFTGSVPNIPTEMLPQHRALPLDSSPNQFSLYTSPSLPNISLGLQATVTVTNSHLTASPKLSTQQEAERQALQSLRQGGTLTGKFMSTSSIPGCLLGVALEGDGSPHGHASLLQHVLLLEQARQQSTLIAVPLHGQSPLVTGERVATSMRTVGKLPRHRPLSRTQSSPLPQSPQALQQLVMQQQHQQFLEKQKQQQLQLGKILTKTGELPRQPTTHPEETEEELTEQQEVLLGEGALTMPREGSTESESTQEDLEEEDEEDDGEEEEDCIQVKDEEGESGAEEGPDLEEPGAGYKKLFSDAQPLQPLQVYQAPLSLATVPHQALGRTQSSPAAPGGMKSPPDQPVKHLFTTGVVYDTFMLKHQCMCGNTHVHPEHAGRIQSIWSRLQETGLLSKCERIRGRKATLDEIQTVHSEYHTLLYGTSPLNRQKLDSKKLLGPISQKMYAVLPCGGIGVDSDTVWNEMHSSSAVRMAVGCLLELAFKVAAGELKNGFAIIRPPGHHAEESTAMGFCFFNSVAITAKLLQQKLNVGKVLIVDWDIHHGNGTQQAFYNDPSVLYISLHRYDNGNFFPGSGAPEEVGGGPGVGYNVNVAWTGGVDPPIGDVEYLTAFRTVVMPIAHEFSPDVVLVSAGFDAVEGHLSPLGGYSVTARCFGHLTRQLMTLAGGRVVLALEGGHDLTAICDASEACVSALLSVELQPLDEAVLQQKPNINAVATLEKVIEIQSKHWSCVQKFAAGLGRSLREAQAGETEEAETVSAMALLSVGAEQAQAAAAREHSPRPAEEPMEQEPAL
UniProt P78417: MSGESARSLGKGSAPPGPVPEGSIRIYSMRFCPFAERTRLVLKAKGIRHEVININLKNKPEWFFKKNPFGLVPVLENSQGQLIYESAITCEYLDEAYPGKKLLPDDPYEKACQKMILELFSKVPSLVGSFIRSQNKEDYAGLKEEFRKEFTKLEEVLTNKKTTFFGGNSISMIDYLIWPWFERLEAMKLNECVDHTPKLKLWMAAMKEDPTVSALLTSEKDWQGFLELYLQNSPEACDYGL

Assays:
Experiment in all cases: log2 fold change, soluble protein after heating vs DMSO (PISA); higher = thermal stabilisation; K562 cells, 10 uM, 30 min; active = over 0.2 and 3.5 SD of the protein, either way, in both replicates (recomputed)
erlotinib = compound: C#Cc1cccc(Nc2ncnc3cc(OCCOC)c(OCCOC)cc23)c1 [erlotinib]
Procedure, shortened: (§1)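 K562 cells at 2×10^6 cells/mL were exposed to 10 μM compound for 30 min, then aliquots were heated for 3 min across 48°C-58°C, pooled, and extracted in PBS containing 0.5% NP-40 at 4°C. The supernatant after 21,000xg for 90 min was taken as soluble protein and measured by TMTpro 16plex LC-MS/MS with channel sums equalised. Thermal stability is reported relative to control samples, with values from duplicates. Fold changes are given on a log2 scale.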

[1] = compound: C/C(=N\NC(=O)C1=CC(=CC=C1)S(=O)(=O)N2CCOCC2)/C3=C(C=CC(=C3)Cl)O
Procedure, shortened: as §1

[2] = compound: C1=CC(=C(C=C1Cl)C2=NC3=NC=CN=C3C(=N2)NC4=CC=NC=C4)F
Procedure, shortened: as §1

[3] = compound: C1=CC(=CC=C1C2=NC3=C(N2)C=C(C=C3)C(=O)N)OC4=CC=C(C=C4)Cl
Procedure, shortened: as §1

[4] = compound: C1=CC2=C(C=CC(=C2)/C=C\3/C(=O)NC(=NCC4=CC=CS4)S3)N=C1
Procedure, shortened: as §1

[5] = compound: C1=CC2=NC=CN=C2C=C1/C=C/3\C(=O)NC(=O)S3
Procedure, shortened: as §1

[6] = compound: C1=CC=C(C=C1)C2=NC(=C(N2)C3=CC=NC=C3)C4=CC(=C(C=C4)Cl)O
Procedure, shortened: as §1

[7] = compound: C1=CC=C2C(=C1)C3=NNC4=CC=CC(=C43)C2=O
Procedure, shortened: as §1

[8] = compound: C1CCN(C1)C(=O)NC2=CC=CC(=C2)NC3=NC=C(C(=N3)NCCC4=CN=CN4)Br
Procedure, shortened: as §1

[9] = compound: C1CN(CCC1(CC2=CC=C(C=C2)Cl)N)C3=NC=NC4=C3C=CN4
Procedure, shortened: as §1

Target | log2 fold change (erlotinib) | log2 fold change [1] | log2 fold change [2] | log2 fold change [3] | log2 fold change [4] | log2 fold change [5] | log2 fold change [6] | log2 fold change [7] | log2 fold change [8] | log2 fold change [9]
GSN (UniProt P06396) | inactive: -0.023 | inactive: -0.032 | inactive: 0.051 | inactive: 0.023 | inactive: 0.038 | inactive: -0.014 | inactive: -0.023 | inactive: -0.094 | inactive: 0.028 | inactive: 0.106
HACL1 (UniProt Q9UJ83) | inactive: -0.015 | inactive: -0.014 | inactive: 0.105 | inactive: -0.038 | inactive: -0.006 | inactive: 0.048 | inactive: 0.006 | inactive: 0.026 | inactive: 0.002 | inactive: 0.051
HARS (UniProt P12081) | inactive: -0.011 | inactive: -0.001 | inactive: 0.034 | inactive: -0.007 | inactive: -0.01 | inactive: 0.014 | inactive: -0.025 | inactive: -0.019 | inactive: 0.026 | inactive: 0.036
HBA1 (UniProt P69905) | inactive: -0.058 | inactive: 0.048 | inactive: 0.215 | inactive: 0.063 | inactive: 0.104 | inactive: 0.023 | inactive: 0.123 | inactive: -0.026 | inactive: -0.105 | inactive: 0.031
HECTD1 (UniProt Q9ULT8) | inactive: 0.009 | inactive: 0.127 | inactive: -0.031 | inactive: -0.003 | inactive: 0.025 | inactive: 0.087 | inactive: -0.038 | inactive: -0.035 | inactive: -0.076 | inactive: -0.204
HEATR5A (UniProt Q86XA9) | inactive: 0.13 | inactive: -0.01 | inactive: -0.026 | inactive: -0.055 | inactive: 0.03 | inactive: 0.002 | inactive: -0.008 | inactive: -0.06 | inactive: 0.319 | inactive: -0.01
GTF2E2 (UniProt P29084) | inactive: 0.028 | inactive: 0.137 | inactive: 0.048 | inactive: -0.001 | inactive: 0.09 | inactive: 0.003 | inactive: -0.002 | inactive: 0.03 | inactive: -0.03 | inactive: -0.13
GSPT1 isoform 3 (UniProt P15170) | inactive: -0.016 | inactive: 0.011 | inactive: 0.056 | inactive: 0.006 | inactive: 0.048 | inactive: -0.013 | inactive: 0.024 | inactive: 0.003 | inactive: 0.015 | inactive: 0.024
GTF2B (UniProt Q00403) | inactive: 0.069 | inactive: 0.136 | inactive: 0.048 | inactive: -0.035 | inactive: 0.149 | inactive: 0.027 | inactive: -0.033 | inactive: 0.01 | inactive: -0.065 | inactive: -0.046
HBD (UniProt P02042) | inactive: -0.007 | inactive: 0 | inactive: 0.209 | inactive: 0.008 | inactive: 0.058 | inactive: 0.025 | inactive: 0.108 | inactive: -0.017 | inactive: 0 | inactive: -0.065
GYS1 (UniProt P13807) | inactive: -0.022 | inactive: -0.104 | inactive: -0.345 | inactive: -0.066 | inactive: -0.071 | inactive: -0.003 | inactive: -0.14 | inactive: 0.176 | inactive: -0.021 | inactive: -0.069
HDGF (UniProt P51858) | inactive: 0.007 | inactive: -0.023 | inactive: 0.032 | inactive: -0.036 | inactive: -0.016 | inactive: -0.001 | inactive: -0.054 | inactive: -0.033 | inactive: 0.019 | inactive: 0.016
HADH isoform 2 (UniProt Q16836) | inactive: 0.006 | inactive: 0.008 | inactive: 0.082 | inactive: 0.047 | inactive: 0.005 | inactive: 0 | inactive: -0.017 | inactive: 0.05 | inactive: -0.009 | inactive: 0.028
HBQ1 (UniProt P09105) | inactive: -0.007 | inactive: -0.021 | active: 0.33 | inactive: 0.03 | inactive: 0.059 | inactive: 0.011 | inactive: 0.051 | inactive: -0.021 | inactive: -0.093 | inactive: 0.026
HAGH (UniProt Q16775) | inactive: 0.031 | inactive: -0.13 | inactive: -0.067 | inactive: 0.018 | inactive: 0.071 | inactive: 0.011 | inactive: -0.005 | inactive: 0.015 | inactive: 0.008 | inactive: 0.032
HDAC2 (UniProt Q92769) | active: 0.757 | inactive: 0.013 | inactive: -0.02 | inactive: -0.012 | inactive: 0.006 | inactive: 0.002 | inactive: -0.011 | inactive: -0.011 | inactive: -0.025 | inactive: 0.023
GTF2I (UniProt P78347) | inactive: 0.038 | inactive: 0.03 | inactive: -0.107 | inactive: -0.021 | inactive: -0.045 | inactive: 0.017 | inactive: 0.009 | inactive: -0.088 | inactive: -0.09 | inactive: 0.121
GSTP1 (UniProt P09211) | inactive: 0.021 | inactive: 0.038 | inactive: 0.013 | inactive: -0.016 | inactive: 0.041 | inactive: 0.037 | inactive: 0.014 | inactive: 0.005 | inactive: 0.021 | inactive: 0.057
GSTM3 (UniProt P21266) | inactive: 0.029 | inactive: 0.027 | inactive: 0.072 | inactive: -0.029 | inactive: 0.087 | inactive: 0.112 |  | inactive: 0.114 | inactive: -0.046 | inactive: 0.084
GSTZ1 (UniProt G3V4T6) | inactive: 0.01 | inactive: 0.028 | inactive: 0.07 | inactive: 0.09 | inactive: 0.029 | inactive: -0.033 | inactive: 0.003 | inactive: 0.023 | inactive: -0.002 | inactive: 0.057
HBS1L isoform 2 (UniProt Q9Y450) | inactive: 0.031 | inactive: -0.048 | inactive: -0.019 | inactive: -0.003 | inactive: -0.084 | inactive: 0.036 | inactive: 0.034 | inactive: 0.005 | inactive: 0.032 | inactive: -0.075
HAUS1 (UniProt Q96CS2) | inactive: -0.01 | inactive: 0.067 | inactive: -0.047 | inactive: -0.01 | inactive: -0.107 | inactive: 0.068 | inactive: 0.068 | inactive: -0.075 | inactive: -0.089 | inactive: -0.084
HDAC5 isoform 3 (UniProt Q9UQL6) | inactive: -0.075 | inactive: 0.141 | inactive: -0.129 | inactive: -0.041 | inactive: -0.059 | inactive: 0.028 |  | inactive: 0.001 | inactive: -0.063 | inactive: 0.009
GSTO1 (UniProt P78417) | inactive: -0.009 | inactive: 0.007 | inactive: 0.065 | inactive: -0.001 | inactive: 0.006 | active: 0.278 | inactive: 0.095 | inactive: 0.031 | inactive: -0.005 | inactive: 0.008
HELQ (UniProt Q8TDG4) | inactive: -0.08 | inactive: -0.065 | inactive: -0.053 | inactive: 0.071 | inactive: 0.069 | inactive: -0.109 | inactive: 0.043 | inactive: 0.024 | inactive: 0.095 | inactive: -0.058
HERPUD2 (UniProt Q9BSE4) | inactive: 0.01 | inactive: -0.067 |  | inactive: 0.049 | inactive: 0.069 | inactive: -0.27 | inactive: 0.034 | inactive: 0.121 |  | 
HEBP2 (UniProt Q9Y5Z4) | inactive: 0.012 | inactive: 0.004 | inactive: 0.042 | inactive: -0.014 | inactive: -0.035 | inactive: 0.026 | inactive: -0.023 | inactive: 0.003 | inactive: 0.007 | inactive: 0.011
HEXIM1 (UniProt O94992) | inactive: 0.051 | inactive: -0.034 | inactive: -0.071 | inactive: 0.007 | inactive: 0.04 | inactive: 0.011 | inactive: -0.109 | inactive: 0.005 | inactive: -0.005 | inactive: -0.048
GXYLT1 (UniProt Q4G148) | inactive: -0.005 | inactive: -0.023 | inactive: 0.15 | inactive: 0.035 | inactive: -0.037 | inactive: -0.185 | inactive: 0.115 | inactive: 0.008 | inactive: -0.043 | inactive: 0.023

Quoted from the entries so far for reference:
Target | log2 fold change (erlotinib) | log2 fold change [1] | log2 fold change [2] | log2 fold change [3] | log2 fold change [4] | log2 fold change [5] | log2 fold change [6] | log2 fold change [7] | log2 fold change [8] | log2 fold change [9]
HBD (UniProt P02042) | inactive: -0.007 | inactive: 0 | inactive: 0.209 | inactive: 0.008 | inactive: 0.058 | inactive: 0.025 | inactive: 0.108 | inactive: -0.017 | inactive: 0 | inactive: -0.065
GYS1 (UniProt P13807) | inactive: -0.022 | inactive: -0.104 | inactive: -0.345 | inactive: -0.066 | inactive: -0.071 | inactive: -0.003 | inactive: -0.14 | inactive: 0.176 | inactive: -0.021 | inactive: -0.069
